US20160108382

Protein sequences, listed by entry. Tags and fused reporters are not part of them. Lines headed by an entry give the natural chain unless they say otherwise; changes in a name come on top.
UniProt P06526: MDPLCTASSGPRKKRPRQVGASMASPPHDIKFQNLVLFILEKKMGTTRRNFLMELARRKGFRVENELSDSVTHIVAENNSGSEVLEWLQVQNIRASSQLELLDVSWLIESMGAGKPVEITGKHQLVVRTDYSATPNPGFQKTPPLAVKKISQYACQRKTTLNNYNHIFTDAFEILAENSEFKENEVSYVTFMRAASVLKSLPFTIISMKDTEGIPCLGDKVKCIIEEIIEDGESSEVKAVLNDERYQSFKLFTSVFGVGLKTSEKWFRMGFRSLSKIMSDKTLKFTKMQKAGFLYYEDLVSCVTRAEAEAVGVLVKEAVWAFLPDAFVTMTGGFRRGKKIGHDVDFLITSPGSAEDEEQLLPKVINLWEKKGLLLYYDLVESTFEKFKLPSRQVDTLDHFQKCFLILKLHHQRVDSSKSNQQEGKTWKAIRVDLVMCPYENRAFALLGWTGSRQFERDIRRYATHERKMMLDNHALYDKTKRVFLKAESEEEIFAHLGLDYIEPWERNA

Molecular target: terminal deoxynucleotidyl transferase (TdT) (UniProt P06526)
Assay: activity assay
Conditions: CITED Tjong et al. 2011; template-independent extension with dATP, agarose gel time course; purified recombinant protein; label: 5'-Cy5; single-stranded DNA

AAAAAAAAAA [5'-Cy5-dA10 strand initiator]
activity on this sequence: active

For at least one entry, the source does not settle the construct or the ends of the probe.
